Data on three molecules can be found in patent publication US20240239872A1.

The target in test [1] is PVY CP (coat protein of potato virus Y, expressed from pEHISTEV-PVY CP) (Potato virus Y). The experiment in a line: dot blot; also Western blot and ELISA. (In western blotting, separated proteins are transferred to a membrane and probed.)
Substrate in test [2]: CP of PVY isolate PVY8 (Potato virus Y)
The experiment in a line: dot-ELISA on synthesized isolate CP.

Substrate in test [3]: CP of tobacco vein mottling virus (TVMV) (genus Potyvirus) (Tobacco vein mottling virus)
The experiment in a line: dot blot; also Western blot and ELISA.

Substrate in test [4]: CP of chilli ringspot virus (ChiRSV) (genus Potyvirus) (Chilli ringspot virus)
The experiment in a line: dot blot; also Western blot and ELISA.

Substrate in test [5]: CP of potato virus S (PVS) (genus Carlavirus) (Potato virus S)
The test can be described thus: dot blot; also Western blot and ELISA.

Substrate in test [6]: CP of potato virus M (PVM) (genus Carlavirus) (Potato virus M)
The experiment in a line: dot blot; also Western blot and ELISA.

Substrate in test [7]: CP of potato virus A (PVA) (genus Potyvirus) (Potato virus A)
The test can be described thus: dot blot; also Western blot and ELISA.

Substrate in test [8]: CP of potato virus X (PVX) (genus Potexvirus) (Potato virus X)
The test can be described thus: dot blot; also Western blot and ELISA.

Substrate in test [9]: CP of PVY isolate PVY10 (Potato virus Y)
The experiment in a line: dot-ELISA on synthesized isolate CP.

Substrate in test [10]: CP of PVY isolate PVY3 (Potato virus Y)
The test can be described thus: dot-ELISA on synthesized isolate CP.

Substrate in test [11]: CP of PVY isolate PVY6 (Potato virus Y)
The test can be described thus: dot-ELISA on synthesized isolate CP. On the technique in general: In an ELISA, binding on a coated surface is turned into a signal by an enzyme label.

Substrate in test [12]: CP of PVY isolate PVY2 (Potato virus Y)
The test can be described thus: dot-ELISA on synthesized isolate CP.

Substrate in test [13]: CP of PVY isolate PVY7 (Potato virus Y)
The experiment in a line: dot-ELISA on synthesized isolate CP.

Substrate in test [14]: CP of PVY isolate PVY4 (Potato virus Y)
The experiment in a line: dot-ELISA on synthesized isolate CP.

Substrate in test [15]: CP of PVY isolate PVY9 (Potato virus Y)
The experiment in a line: dot-ELISA on synthesized isolate CP.

Substrate in test [16]: CP of PVY isolate PVY5 (Potato virus Y)
The test can be described thus: dot-ELISA on synthesized isolate CP.

Substrate in test [17]: CP of PVY isolate PVY1 (Potato virus Y)
The test can be described thus: dot-ELISA on synthesized isolate CP.

Substrate in test [18]: CP of PVY isolate PVY5 (Potato virus Y)
The test can be described thus: dot-ELISA on synthesized isolate CP (refers to Embodiment 2).

Results are given in words; binding and its absence hold for the method and conditions named. For some of these results: Binding can be weak; no strength is given.

B1: monoclonal antibody C1 (antibody, V domains shown)
VH: EVQLQQSGAELVRPGALVKLSCKASGFNIKDYYMHWVKQRPEEGLEWIGWIDPENGNTIYDPKFQGKASITADTSSNTVRLQLSSLTSEDTAVYYCARERGAYWGQGTLVTVSA
VL: QIVLTQSPAIMSASPGEKVTMTCSASSSVSYMYWFQQKPGSSPRLLIYDTSNLASGVPVRFSGSGSGTSYSLTISRMEAEDAATFYCQQWSSYPLTFGAGTKLELK
With B1, the binding result is “binds” in [1]; “no binding” in [2]; “no binding” in test [3]; “no binding” in test [4]; “no binding” in [5]; “no binding” in [6]. Further, the binding entry in [7] and in test [8] was “no binding” each time.

B2: monoclonal antibody M3 (antibody, V domains shown)
VH: EVILVESGGGLVKPGGSLRLSCAASGFTFSSHPLSWVRQSPDKRLEWVASISSGGRYTYYPDSVKGRLTISRDNAKNILYLHMNSLRSEDTAMYYCARRGSTATAWFAYWGQGTLVTVSA
VL: DIALTQSPASLAVSLGQRATISCKASQSVDYDGDSYMSWYQQKPGQPPKLLIYGASNLESGIPARFSGSGSGTDFTLNIHPVEEEDAATYYCQQSNEDLPTFGGGTKLEIK
B2: the binding entry in test [1], in test [9], in test [2], in test [10], in [11] and in test [12] was “binds” throughout. The binding result in [13], in [14], in test [15], in test [16], in test [17] and in test [18] was “binds” in each case. Moreover, the binding result in test [3], in test [4], in test [5], in [6], in test [7] and in [8] was “no binding” each time.

B3: monoclonal antibody N1 (antibody, V domains shown)
VH: EVQLVESGGGLVQPGGSLKLSCAASGFTFSSYGMSWVRQSPDKRLEWVATINNNGGSTYYPDSVKGRFTISRDNAKNTLYLQMSSLKSEDTAVYYCARDAAFDCWGQGTTLTVSS
VL: DIVMSQSPSSLAVSAGEKVTMSCKSSQSLLNSRTRKNYLAWYQQKPGQSPKLLIYWASTRESGVPDRFTGSGSGTDFTLTISSVQAEDLAVYYCKQSYNLFTFGSGTKLEIK
Turning to B3, the binding result in test [1] is recorded as “binds”; in test [11] it was “no binding”; in test [12], “no binding”; in test [16] it was “no binding”; in test [17] it was “no binding”; in test [3], “no binding”. For the same molecule, the binding entry in test [4], in [5], in test [6], in test [7] and in test [8] was “no binding” each time.
